# This is one part of the list.
# Chains of the proteins cited; added tags and fusions are not shown. Lines headed by an entry give the natural chain unless they say otherwise; changes in a name come on top.
# UniProt P41227: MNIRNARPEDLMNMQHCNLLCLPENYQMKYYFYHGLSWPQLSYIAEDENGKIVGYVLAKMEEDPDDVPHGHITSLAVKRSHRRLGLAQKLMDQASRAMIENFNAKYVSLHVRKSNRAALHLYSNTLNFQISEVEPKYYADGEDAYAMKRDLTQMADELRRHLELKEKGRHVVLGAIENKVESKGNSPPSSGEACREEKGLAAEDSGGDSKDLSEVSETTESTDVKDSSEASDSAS
# UniProt P55209: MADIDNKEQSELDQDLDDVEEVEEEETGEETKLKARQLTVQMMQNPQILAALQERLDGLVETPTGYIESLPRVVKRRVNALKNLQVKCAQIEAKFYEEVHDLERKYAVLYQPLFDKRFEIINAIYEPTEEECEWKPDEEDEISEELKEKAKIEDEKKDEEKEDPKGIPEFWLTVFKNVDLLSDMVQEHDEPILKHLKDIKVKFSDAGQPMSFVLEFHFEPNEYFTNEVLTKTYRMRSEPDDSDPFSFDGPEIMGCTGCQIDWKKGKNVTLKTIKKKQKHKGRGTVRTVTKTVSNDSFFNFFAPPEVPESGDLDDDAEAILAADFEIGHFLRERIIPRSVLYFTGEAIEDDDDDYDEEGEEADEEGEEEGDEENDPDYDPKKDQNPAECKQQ
# UniProt O00159, whole entry, looked up: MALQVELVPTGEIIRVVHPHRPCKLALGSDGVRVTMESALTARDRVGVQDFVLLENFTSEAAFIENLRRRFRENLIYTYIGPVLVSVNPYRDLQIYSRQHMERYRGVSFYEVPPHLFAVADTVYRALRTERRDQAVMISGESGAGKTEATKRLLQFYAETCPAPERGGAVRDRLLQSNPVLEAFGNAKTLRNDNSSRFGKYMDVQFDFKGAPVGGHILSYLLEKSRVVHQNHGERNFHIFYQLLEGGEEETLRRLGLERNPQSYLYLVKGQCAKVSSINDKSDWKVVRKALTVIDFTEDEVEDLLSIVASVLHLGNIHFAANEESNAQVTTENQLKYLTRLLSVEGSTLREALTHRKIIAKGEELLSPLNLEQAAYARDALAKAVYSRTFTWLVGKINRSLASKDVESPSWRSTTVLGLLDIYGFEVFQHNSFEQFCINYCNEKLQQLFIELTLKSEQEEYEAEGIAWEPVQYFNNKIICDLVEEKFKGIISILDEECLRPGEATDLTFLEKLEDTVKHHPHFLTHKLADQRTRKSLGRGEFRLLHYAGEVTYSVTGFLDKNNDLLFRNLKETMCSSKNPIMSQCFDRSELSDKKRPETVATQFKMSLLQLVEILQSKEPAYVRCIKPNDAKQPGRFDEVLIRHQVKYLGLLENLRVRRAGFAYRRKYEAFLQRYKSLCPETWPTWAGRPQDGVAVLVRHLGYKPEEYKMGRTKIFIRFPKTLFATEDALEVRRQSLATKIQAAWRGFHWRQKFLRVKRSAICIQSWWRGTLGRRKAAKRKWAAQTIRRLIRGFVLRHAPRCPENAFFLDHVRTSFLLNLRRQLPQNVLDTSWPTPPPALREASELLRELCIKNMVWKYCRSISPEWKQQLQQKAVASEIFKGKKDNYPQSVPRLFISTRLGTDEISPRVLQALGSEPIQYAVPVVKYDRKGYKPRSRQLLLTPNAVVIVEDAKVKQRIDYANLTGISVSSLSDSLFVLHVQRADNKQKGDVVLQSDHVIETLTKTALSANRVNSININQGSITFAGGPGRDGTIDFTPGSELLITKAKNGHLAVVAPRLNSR
# UniProt Q9HD67, whole entry, looked up: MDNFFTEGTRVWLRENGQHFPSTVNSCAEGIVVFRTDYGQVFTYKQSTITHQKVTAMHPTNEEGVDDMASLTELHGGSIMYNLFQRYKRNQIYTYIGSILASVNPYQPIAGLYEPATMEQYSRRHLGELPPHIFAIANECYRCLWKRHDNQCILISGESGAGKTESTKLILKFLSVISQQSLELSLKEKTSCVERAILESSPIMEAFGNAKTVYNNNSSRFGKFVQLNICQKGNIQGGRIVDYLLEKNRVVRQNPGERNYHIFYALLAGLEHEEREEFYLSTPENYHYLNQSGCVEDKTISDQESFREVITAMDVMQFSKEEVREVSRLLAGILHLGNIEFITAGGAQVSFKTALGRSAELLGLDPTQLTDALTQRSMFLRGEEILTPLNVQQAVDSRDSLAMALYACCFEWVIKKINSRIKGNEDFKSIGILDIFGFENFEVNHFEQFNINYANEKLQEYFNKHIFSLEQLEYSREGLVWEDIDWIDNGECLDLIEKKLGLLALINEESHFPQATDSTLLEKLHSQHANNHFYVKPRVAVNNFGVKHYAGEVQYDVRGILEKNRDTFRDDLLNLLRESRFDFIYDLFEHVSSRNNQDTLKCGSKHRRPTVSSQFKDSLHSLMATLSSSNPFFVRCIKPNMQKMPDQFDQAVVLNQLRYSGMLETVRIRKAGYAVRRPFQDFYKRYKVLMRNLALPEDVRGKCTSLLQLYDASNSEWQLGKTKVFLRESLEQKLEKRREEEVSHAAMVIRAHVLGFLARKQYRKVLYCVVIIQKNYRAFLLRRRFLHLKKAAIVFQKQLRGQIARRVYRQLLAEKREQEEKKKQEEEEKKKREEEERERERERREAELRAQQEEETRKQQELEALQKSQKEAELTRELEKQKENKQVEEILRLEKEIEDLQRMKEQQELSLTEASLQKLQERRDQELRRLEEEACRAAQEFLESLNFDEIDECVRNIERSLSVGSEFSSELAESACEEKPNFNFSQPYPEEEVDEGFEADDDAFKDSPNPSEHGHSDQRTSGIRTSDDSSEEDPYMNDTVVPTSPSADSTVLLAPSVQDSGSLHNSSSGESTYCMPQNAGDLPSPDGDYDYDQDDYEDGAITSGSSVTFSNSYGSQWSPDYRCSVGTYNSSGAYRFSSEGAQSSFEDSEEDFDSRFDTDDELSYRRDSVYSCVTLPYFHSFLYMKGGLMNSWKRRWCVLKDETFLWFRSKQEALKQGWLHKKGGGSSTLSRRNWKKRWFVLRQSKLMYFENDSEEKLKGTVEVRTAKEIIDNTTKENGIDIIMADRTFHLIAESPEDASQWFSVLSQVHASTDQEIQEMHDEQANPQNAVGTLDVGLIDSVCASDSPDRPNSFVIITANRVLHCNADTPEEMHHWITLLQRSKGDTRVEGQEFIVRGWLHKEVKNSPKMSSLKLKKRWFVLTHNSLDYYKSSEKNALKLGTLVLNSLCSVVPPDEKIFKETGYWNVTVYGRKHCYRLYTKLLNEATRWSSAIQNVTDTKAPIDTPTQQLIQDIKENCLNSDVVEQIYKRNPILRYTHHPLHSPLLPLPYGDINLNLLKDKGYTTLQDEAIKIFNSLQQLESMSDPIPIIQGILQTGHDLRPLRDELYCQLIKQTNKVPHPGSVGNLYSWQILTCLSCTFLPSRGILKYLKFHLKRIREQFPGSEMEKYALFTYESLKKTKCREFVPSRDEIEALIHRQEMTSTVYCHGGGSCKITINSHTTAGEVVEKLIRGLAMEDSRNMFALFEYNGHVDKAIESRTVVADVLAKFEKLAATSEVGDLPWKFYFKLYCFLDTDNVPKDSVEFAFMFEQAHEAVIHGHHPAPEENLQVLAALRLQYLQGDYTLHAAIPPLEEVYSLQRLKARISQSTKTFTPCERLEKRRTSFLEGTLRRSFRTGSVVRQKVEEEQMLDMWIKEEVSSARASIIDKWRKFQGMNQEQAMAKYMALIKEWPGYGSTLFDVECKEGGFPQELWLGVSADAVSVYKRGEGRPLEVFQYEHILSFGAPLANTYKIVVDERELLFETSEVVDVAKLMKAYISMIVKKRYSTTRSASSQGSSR
# UniProt P52298: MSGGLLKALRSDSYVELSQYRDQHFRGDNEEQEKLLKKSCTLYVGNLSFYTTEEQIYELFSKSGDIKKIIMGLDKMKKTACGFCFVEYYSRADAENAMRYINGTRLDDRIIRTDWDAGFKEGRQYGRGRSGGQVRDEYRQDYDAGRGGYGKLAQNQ
# UniProt Q15742: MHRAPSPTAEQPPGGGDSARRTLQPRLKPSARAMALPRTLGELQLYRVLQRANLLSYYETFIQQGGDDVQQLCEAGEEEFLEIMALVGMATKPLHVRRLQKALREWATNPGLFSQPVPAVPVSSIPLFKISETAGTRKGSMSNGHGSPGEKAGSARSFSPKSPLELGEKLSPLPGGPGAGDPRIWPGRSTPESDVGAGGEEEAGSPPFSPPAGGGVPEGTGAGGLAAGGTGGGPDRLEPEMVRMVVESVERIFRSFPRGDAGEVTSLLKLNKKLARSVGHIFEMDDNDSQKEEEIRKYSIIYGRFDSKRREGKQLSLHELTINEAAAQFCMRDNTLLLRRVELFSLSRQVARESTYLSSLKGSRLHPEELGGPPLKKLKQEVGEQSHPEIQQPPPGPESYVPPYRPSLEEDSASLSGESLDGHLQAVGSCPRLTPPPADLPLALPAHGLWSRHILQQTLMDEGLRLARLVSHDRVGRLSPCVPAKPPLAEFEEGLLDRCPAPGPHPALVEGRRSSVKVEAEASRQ
# UniProt Q8WUY8: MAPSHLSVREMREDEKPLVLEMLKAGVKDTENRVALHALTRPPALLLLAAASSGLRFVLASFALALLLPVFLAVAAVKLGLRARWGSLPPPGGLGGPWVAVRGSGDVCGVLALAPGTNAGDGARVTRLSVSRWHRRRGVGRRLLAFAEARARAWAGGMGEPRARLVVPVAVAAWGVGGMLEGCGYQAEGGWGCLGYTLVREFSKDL
# UniProt P60660, whole entry, looked up: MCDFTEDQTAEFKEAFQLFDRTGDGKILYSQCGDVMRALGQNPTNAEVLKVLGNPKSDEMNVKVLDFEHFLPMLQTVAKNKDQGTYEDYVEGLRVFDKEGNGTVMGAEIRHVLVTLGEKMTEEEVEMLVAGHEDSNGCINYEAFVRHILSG
# UniProt O60934: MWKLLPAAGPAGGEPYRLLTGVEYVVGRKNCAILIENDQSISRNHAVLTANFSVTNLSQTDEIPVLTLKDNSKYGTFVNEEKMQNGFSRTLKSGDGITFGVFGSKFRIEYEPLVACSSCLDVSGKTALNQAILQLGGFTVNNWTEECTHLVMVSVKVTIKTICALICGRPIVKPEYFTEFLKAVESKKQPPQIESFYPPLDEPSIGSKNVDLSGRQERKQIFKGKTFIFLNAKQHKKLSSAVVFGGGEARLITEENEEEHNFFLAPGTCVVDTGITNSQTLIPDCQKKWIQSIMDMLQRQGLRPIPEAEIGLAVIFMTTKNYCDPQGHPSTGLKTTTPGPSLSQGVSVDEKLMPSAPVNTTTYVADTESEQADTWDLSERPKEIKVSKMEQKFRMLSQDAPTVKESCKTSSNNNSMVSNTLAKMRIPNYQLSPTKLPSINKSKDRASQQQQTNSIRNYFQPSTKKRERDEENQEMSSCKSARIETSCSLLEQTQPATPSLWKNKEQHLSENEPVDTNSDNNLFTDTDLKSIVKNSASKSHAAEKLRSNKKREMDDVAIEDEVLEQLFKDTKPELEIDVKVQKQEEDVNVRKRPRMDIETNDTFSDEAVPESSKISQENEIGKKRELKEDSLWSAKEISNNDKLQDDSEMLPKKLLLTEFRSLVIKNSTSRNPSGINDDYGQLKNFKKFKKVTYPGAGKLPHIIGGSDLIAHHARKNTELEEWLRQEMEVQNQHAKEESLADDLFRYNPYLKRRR
# UniProt Q96BF6: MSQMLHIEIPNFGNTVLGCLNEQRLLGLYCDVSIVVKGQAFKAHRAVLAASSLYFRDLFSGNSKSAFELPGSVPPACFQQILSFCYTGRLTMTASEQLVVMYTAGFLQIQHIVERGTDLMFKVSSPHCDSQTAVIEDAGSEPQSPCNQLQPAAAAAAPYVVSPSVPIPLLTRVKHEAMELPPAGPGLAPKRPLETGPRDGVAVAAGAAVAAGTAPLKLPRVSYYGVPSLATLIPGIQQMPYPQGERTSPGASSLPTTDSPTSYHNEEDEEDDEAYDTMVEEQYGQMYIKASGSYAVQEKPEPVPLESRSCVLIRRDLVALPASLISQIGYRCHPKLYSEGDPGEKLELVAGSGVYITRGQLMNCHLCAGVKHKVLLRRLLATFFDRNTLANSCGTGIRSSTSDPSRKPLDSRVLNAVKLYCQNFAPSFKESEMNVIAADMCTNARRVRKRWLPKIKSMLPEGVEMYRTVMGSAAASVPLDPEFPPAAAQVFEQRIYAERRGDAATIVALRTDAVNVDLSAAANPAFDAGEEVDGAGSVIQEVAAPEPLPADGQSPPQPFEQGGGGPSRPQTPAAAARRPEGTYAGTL
# How the values were obtained:
# Assay in all cases: log2 fold change, soluble protein after heating vs DMSO (PISA); higher = thermal stabilisation; K562 lysate, 10 uM; active = over 0.2 and 3.5 SD of the protein, either way, in both replicates (recomputed)
# [1] = compound: C#Cc1cccc(Nc2ncnc3cc(OCCOC)c(OCCOC)cc23)c1 [erlotinib]
# How it was run: (§1)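 Following dounce homogenisation of K562 pellets in PBS pH 7.4 with 1 mM MgCl2, crude extract at 1 mg/mL protein was incubated for 30 min with 10 μM compound. Aliquots were then heated for 3 min over 48°C-58°C and pooled, NP-40 was added to 0.5% at 4°C, and soluble protein was recovered as the supernatant at 21,000xg for 90 min. Channel-sum-equalised TMTpro 16plex LC-MS/MS quantified this protein. Each value, from duplicates, is a log-two fold change in thermal stability relative to solvent controls.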
# [2] = compound: C/C(=N\NC(=O)C1=CC(=CC=C1)S(=O)(=O)N2CCOCC2)/C3=C(C=CC(=C3)Cl)O
# How it was run: as §1
# [3] = compound: C1=CC(=CC=C1C2=NC3=C(N2)C=C(C=C3)C(=O)N)OC4=CC=C(C=C4)Cl
# How it was run: as §1
# [4] = compound: C1=CC2=C(C=CC(=C2)/C=C\3/C(=O)NC(=NCC4=CC=CS4)S3)N=C1
# How it was run: as §1
# [5] = compound: C1=CC2=NC=CN=C2C=C1/C=C/3\C(=O)NC(=O)S3
# How it was run: as §1
# [6] = compound: C1=CC=C(C=C1)C2=NC(=C(N2)C3=CC=NC=C3)C4=CC(=C(C=C4)Cl)O
# How it was run: as §1
# [7] = compound: C1=CC=C2C(=C1)C3=NNC4=CC=CC(=C43)C2=O
# How it was run: as §1
# [8] = compound: C1CCN(C1)C(=O)NC2=CC=CC(=C2)NC3=NC=C(C(=N3)NCCC4=CN=CN4)Br
# How it was run: as §1
# [9] = compound: C1CN(CCC1(CC2=CC=C(C=C2)Cl)N)C3=NC=NC4=C3C=CN4
# How it was run: as §1
# [10] = compound: C1COCCN1CCN2C3=CC=CC=C3N=C2NC(=O)C4=CC(=CC=C4)[N+](=O)[O-] [IRAK-1-4 Inhibitor I]
# How it was run: as §1
# [11] = compound: C=CC(=O)N1CCC[C@@H](n2nc(-c3ccc(Oc4ccccc4)cc3)c3c(N)ncnc32)C1 [ibrutinib]
# How it was run: as §1
# [12] = compound: CC(=O)c1cnc2ccc(-c3cc(Cl)c(O)c(Cl)c3)nc2c1N[C@H]1CC[C@H](CN(C)C)CC1
# How it was run: as §1
# [13] = compound: CC(C)(C)Cn1c(N)nc2ccc(-c3[nH]c(C(C)(C)C)nc3-c3ccc(F)cc3)nc21 [ralimetinib]
# How it was run: as §1
# [14] = compound: CC(C)(O)CC(=O)NCCn1ccc2ncnc(Nc3ccc(Oc4cccc(C(F)(F)F)c4)c(Cl)c3)c21
# How it was run: as §1
# [15] = compound: CC(C)C1=C2N=C(C=C(N2N=C1)NCC3=CC=CC=C3)NCCCCCCN
# How it was run: as §1
# [16] = compound: CC1=C(C(CC(=O)N1)C2=CC=C(C=C2)C(F)(F)F)C(=O)NC3=C(C=C4C(=C3)C=NN4)F
# How it was run: as §1
# [17] = compound: CC1=C(C2=C(C=C1)C(=O)C3=CC=CC=C3N2CCCN)C
# How it was run: as §1
# [18] = compound: CC1=C(C=C(C=C1)NC(=O)C2=CC(=CC=C2)C(C)(C)C#N)NC3=CC4=C(C=C3)N=CN(C4=O)C
# How it was run: as §1
# [19] = compound: CC1=C(C=C(C=C1)NC(=O)C2=CC(=CC=C2)N(C)C)NC(=O)C3=CC=C(C=C3)O
# How it was run: as §1
# [20] = compound: CC1=CC=C(C=C1)SC2=C3C=C(SC3=CN=C2)C(=O)N
# How it was run: as §1
Target,log2 fold change [1],log2 fold change [2],log2 fold change [3],log2 fold change [4],log2 fold change [5],log2 fold change [6],log2 fold change [7],log2 fold change [8],log2 fold change [9],log2 fold change [10],log2 fold change [11],log2 fold change [12],log2 fold change [13],log2 fold change [14],log2 fold change [15],log2 fold change [16],log2 fold change [17],log2 fold change [18],log2 fold change [19],log2 fold change [20]
NAA10 (UniProt P41227),inactive: 0.022,inactive: 0.02,inactive: 0.01,inactive: -0.007,inactive: 0.013,inactive: -0.019,inactive: -0.002,inactive: 0.037,inactive: 0.018,inactive: 0.004,inactive: 0.018,inactive: 0.021,inactive: -0.001,inactive: 0.008,inactive: 0.006,inactive: 0.016,inactive: 0.004,inactive: -0.027,inactive: -0.004,inactive: 0.004
NAP1L1 isoform 3 (UniProt P55209),inactive: 0,inactive: -0.12,inactive: 0.016,inactive: -0.03,inactive: 0.07,inactive: 0.077,inactive: -0.097,inactive: -0.077,inactive: 0.014,inactive: 0.038,inactive: -0.162,inactive: 0.036,inactive: 0.104,inactive: -0.101,inactive: -0.175,inactive: -0.087,inactive: 0.023,inactive: 0.099,inactive: 0.262,inactive: -0.088
MYO1C (UniProt O00159),inactive: -0.002,inactive: -0.005,inactive: 0.003,inactive: 0.017,inactive: 0.006,inactive: 0.047,inactive: -0.003,inactive: -0.021,inactive: -0.032,inactive: -0.055,inactive: 0.037,inactive: 0.031,inactive: 0.075,inactive: -0.032,inactive: -0.009,inactive: -0.03,inactive: 0.017,active: -0.292,inactive: 0.021,inactive: 0.06
MYO10 (UniProt Q9HD67),inactive: -0.044,inactive: -0.13,inactive: 0.19,inactive: 0.017,inactive: -0.062,inactive: 0.014,inactive: -0.16,,,inactive: 0.102,inactive: -0.059,,inactive: -0.136,inactive: -0.385,inactive: 0.035,inactive: -0.078,,inactive: -0.001,inactive: 0.042,
MYO18B isoform 3 (UniProt Q8IUG5),inactive: -0.258,inactive: 0.051,inactive: -0.062,inactive: 0.018,inactive: -0.138,,inactive: -0.026,inactive: -0.029,inactive: -0.071,,inactive: 0.163,inactive: 0.015,,,inactive: 0.154,,inactive: -0.017,inactive: 0.017,,inactive: -0.006
NCBP2 (UniProt P52298),inactive: -0.006,inactive: 0.052,inactive: 0.034,inactive: 0.017,inactive: 0.003,inactive: -0.019,inactive: -0.002,inactive: 0,inactive: 0.018,inactive: -0.011,inactive: -0.045,inactive: -0.029,inactive: 0.015,inactive: 0.001,inactive: 0.022,inactive: 0.014,inactive: 0.044,inactive: -0.027,inactive: 0.062,inactive: -0.076
NAB2 (UniProt Q15742),inactive: -0.015,inactive: 0.018,inactive: 0.016,inactive: -0.015,inactive: 0.009,,inactive: -0.05,inactive: 0.02,inactive: 0.002,,inactive: 0.029,,,,inactive: -0.062,inactive: 0.047,inactive: -0.009,inactive: -0.088,,
MYH11 isoform 2 (UniProt P35749),inactive: -0.015,inactive: 0.035,inactive: 0.027,inactive: -0.002,inactive: -0.092,inactive: 0.142,inactive: -0.038,inactive: -0.036,inactive: 0.047,inactive: 0.013,inactive: -0.051,inactive: -0.011,inactive: -0.094,inactive: -0.043,inactive: 0.013,inactive: -0.019,inactive: -0.007,inactive: -0.043,inactive: 0,inactive: -0.004
NAT14 (UniProt Q8WUY8),inactive: 0,inactive: 0.046,inactive: -0.05,inactive: 0.025,,inactive: 0.212,inactive: -0.074,inactive: -0.115,inactive: 0.049,inactive: -0.258,,,inactive: 0.062,inactive: 0.207,inactive: 0.07,,inactive: -0.172,inactive: 0.031,inactive: 0.149,
MYL6 isoform 2 (UniProt P60660),inactive: -0.015,inactive: 0.157,inactive: 0.059,inactive: 0.049,,inactive: -0.009,inactive: 0.096,inactive: 0.188,inactive: 0.027,inactive: 0.026,,inactive: 0.098,inactive: 0.007,inactive: 0.016,inactive: -0.093,inactive: -0.027,inactive: 0.006,inactive: 0.06,inactive: -0.063,inactive: 0.077
NBN (UniProt O60934),inactive: -0.026,inactive: 0.068,inactive: 0.051,inactive: -0.004,inactive: -0.024,inactive: 0.013,inactive: -0.044,inactive: -0.005,inactive: 0.013,inactive: 0.007,inactive: 0.016,inactive: -0.003,inactive: 0.014,inactive: 0.01,inactive: -0.016,inactive: -0.007,inactive: -0.015,inactive: -0.021,inactive: 0.022,inactive: -0.016
NACC2 (UniProt Q96BF6),inactive: -0.157,inactive: -0.188,inactive: 0,inactive: 0.107,,inactive: 0.162,inactive: 0.087,inactive: -0.085,inactive: -0.016,inactive: 0.143,,,inactive: -0.067,inactive: -0.071,inactive: -0.119,inactive: 0.096,inactive: 0,inactive: -0.014,inactive: -0.365,

# As entered above:
# Value for MYO1C (UniProt O00159) under log2 fold change [1]: inactive: -0.002
# Value for MYH11 isoform 2 (UniProt P35749) under log2 fold change [5]: inactive: -0.092
